The text below walks through data of paper PMC4070973.

The data set has as its target T1, Cry1 (UniProt G0RI60).
T1 sequence (looked up): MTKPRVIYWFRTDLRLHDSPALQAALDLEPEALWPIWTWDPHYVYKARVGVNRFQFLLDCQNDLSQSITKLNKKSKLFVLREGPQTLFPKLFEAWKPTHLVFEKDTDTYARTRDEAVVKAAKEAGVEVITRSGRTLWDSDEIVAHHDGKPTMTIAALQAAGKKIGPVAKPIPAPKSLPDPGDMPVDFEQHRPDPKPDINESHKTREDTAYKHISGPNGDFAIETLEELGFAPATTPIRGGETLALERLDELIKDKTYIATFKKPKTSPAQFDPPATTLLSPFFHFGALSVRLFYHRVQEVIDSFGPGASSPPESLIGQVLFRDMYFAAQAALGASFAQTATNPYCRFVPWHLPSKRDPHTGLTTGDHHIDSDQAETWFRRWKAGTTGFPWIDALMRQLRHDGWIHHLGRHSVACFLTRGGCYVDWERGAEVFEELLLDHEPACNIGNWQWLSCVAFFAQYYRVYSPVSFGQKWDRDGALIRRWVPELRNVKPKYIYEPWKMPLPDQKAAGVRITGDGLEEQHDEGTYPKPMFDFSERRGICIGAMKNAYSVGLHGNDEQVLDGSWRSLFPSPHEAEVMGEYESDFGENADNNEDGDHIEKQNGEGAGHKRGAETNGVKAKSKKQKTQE
In words: EMSA. Conditions: Cry1 0-25.35 uM, 1 nM DNA, complex increases with protein, similar to 6-4PP DNA; EMSA: 1 nM 32P-DNA, 0-25.35 uM Cry1, 10% non-denaturing acrylamide gel; binding buffer, pH and temperature not stated (repair assay: 100 mM Tris-HCl pH 8.0, 1 mM DTT); recombinant protein; residues 1-628; protein details: N-terminal 6xHis (pColdI); label: 32P on complementary strand (T4 PNK, 5').

The exact form of at least one protein or probe is not confirmed. Protein sequences can lack the tags named with them.

For “AGCTACCATGCCTGCACGAATTAAGCAATTCGTAATCATGGTCATAGCT (double strand) [undamaged 49 bp oligomer]”, the binding result was “binds”.
